Whole data set: some 33,000 sequences, median “E-score (-0.5 to 0.5)” near -0.016, cut for the highest 2% near 0.3. The list shows a part of the results.
Molecular target: T1, Yer184c (UniProt P39961)
T1 sequence: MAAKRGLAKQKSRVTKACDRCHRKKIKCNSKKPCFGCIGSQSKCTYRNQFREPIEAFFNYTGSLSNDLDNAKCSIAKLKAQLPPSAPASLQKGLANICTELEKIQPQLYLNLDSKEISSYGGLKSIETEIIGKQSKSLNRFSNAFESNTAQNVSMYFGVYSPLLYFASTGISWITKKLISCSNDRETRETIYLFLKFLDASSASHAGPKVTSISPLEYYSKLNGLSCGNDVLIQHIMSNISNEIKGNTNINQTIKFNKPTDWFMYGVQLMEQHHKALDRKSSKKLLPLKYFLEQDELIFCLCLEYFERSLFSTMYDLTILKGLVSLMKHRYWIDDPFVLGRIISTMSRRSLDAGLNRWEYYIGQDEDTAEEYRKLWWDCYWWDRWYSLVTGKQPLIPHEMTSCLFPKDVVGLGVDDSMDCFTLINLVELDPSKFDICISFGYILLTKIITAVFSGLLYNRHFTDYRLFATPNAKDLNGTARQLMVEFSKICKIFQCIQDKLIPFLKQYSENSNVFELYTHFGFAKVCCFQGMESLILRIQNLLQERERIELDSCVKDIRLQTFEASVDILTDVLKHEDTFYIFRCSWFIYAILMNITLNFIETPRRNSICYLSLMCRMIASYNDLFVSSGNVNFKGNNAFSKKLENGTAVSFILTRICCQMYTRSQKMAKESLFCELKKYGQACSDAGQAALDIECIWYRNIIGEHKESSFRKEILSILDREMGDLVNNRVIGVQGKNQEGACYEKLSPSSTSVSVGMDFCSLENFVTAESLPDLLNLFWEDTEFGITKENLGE
Assay: PBM E-score (8-mer binding enrichment) (E-score (-0.5 to 0.5)); higher = stronger / more preferred TF binding
Conditions: protein concentration: 100 nM; construct: GST-full length
Method in brief: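 For each ungapped eight-base word taken together with its reverse complement, the Universal PBM Analysis Suite assigned an E-score. Binding data came from GST-tagged yeast transcription factors, applied at about 100-200 nM, on universal all-10-mer Agilent arrays made double-stranded by primer extension. Fluorescent anti-GST marked bound protein, and scans were normalised with masliner.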

Sequence	PBM E-score
CTCTTAGC	0.0811
GAATAACA	0.199
ATTACCAC	0.105
AGGAAAAT	0.0993
AATATATC	0.292
GAAGCTTA	0.0282
AACTGACA	0.00973
GAGACGGC	0.24
CGGCACCA	0.256
CTATGTAC	-0.224
AATACCAA	0.129
GGATCAGA	-0.0512
GATTAAGA	0.135
AACTAATC	0.0714
ACGCTCCC	-0.0299
AAGCCATA	-0.153
GAACGGTC	-0.0132
TCTTTTCA	0.101
CTACTCAG	-0.113
TACGTGAA	-0.0153
CTAAGGGA	-0.118
AGCGGTCC	0.0927
AATGCCTG	-0.123
AACAAGAG	-0.133
CATGCCAC	-0.224

Sequence	PBM E-score
AAAATTAA	0.168
CTTTCACA	0.189
GCGGCCTA	-0.177
AGCGGCGC	-0.00549
CGACATCA	0.131
GGGAGCCA	-0.261
AGATAGTA	0.223
GAAGGGTC	-0.172
GCCCTTAA	-0.0336
CCCGACGG	0.0798
ATAAGTTC	0.181
CATCACAA	0.00903
TATCGCCA	-0.0705
TATCGACA	0.00835
ACAAGTCT	-0.148
CACTCGTC	-0.0494
AGACATAT	-0.00394
GTGATCCA	-0.0784
GAACTACA	0.0653
AAAGCCGG	0.351
CGATTCCA	0.0177
AACATTCC	-0.0121
AACCTTTG	-0.00777
GGTTAACC	0.0536
AAGCGTCA	-0.0183

Sequence	PBM E-score
GGCCGCCC	-0.119
ATGAAACC	0.133
CGAGGTTC	0.116
AGGTTACC	0.159
CGGAGTTC	0.265
AATTGTGA	0.109
AGTCCCAA	-0.11
CCATAACA	0.128
AGTCTTAA	-0.107
ATTTCTAA	0.0963
CCCAGAAC	-0.126
AGCGCGAC	-0.18
ATTGGGTC	-0.0134
GTTGAGTA	0.0258
CTAGCTAA	-0.0599
ACCGCTCG	-0.135
AATCCTAC	-0.0783
CATCAAGC	-0.016
AGTCCAGC	-0.114
ATTCGGCA	0.318
GGGATTTA	0.0651
ATGAGCTA	0.0119
AAGCTGTG	-0.0976
GTTAAATA	0.123
ACCATCAT	-0.139

Rewritten with bars between the fields: entries from further up
Sequence | PBM E-score
GGCCGCCC | -0.119
CGAGGTTC | 0.116
AATTGTGA | 0.109
CCATAACA | 0.128
ATTGGGTC | -0.0134
AATCCTAC | -0.0783
ATGAGCTA | 0.0119

Later entries:

Sequence	PBM E-score
CAGCACGA	-0.119
GAACGGCA	0.193
GCCGCTAC	-0.0152
AGTATGTG	-0.00422
CACGTAAC	-0.226
TGTGAGAA	0.0227
TCCACCCA	-0.325
GAGAGTCA	-0.175
ACGGGATC	0.0948
TAAGTCTA	-0.259
ATCAGCTC	-0.0229
ATGTAGTA	0.15
GCACTGAA	-0.0305
CTTTAGGA	-0.0775
TGTTGAAA	0.235
CGGCCCCC	-0.189
CTAACCCA	-0.0813
CACGCGAA	-0.0594
CACAAGTG	-0.21
AATCTGCA	-0.102
ATTTATGA	0.231
ATCCTTTA	0.025
ATGATCGG	0.183
ACGGTTAA	0.0948
GTGTATGA	-0.0898

Sequence	PBM E-score
AGAGGTAT	0.136
GAACAAAA	0.276
TCTTTGAA	0.151
CACTATCA	-0.158
ACCCAGGA	-0.108
ATTTCTAG	0.222
CCCACATA	-0.264
AACCAAAA	0.0925
CAGTTCAA	-0.104
CGCTCCGC	0.142
CCAGCACA	-0.0868
TAGGCTAA	-0.101
GTAGTGAA	0.0671
GAGCGCAA	-0.176
TCGTATCA	-0.00746
GCGGGTTA	0.00078
CGAGTCAC	-0.0328
CCGCGAGA	-0.206
AAATTATC	0.295
CGTTTGAC	0.0214
GACGTAAC	0.00204
AGATTGAC	-0.152
GTGTAGGA	-0.118
ACAGGCGC	-0.188
AGCAGAAG	-0.117

Sequence	PBM E-score
GAAGGATA	-0.0217
ATATTTTG	0.218
ACTGTGTA	0.0718
AGTTACTC	0.135
ACGCTATA	-0.163
ATATATAA	0.339
AAATTGAC	0.125
CCTTTTAG	-0.187
CCCGTATA	0.0422
ATGTCTCA	-0.0797
TTCCCGAA	0.277
TCCTACGA	-0.233
AAGCTCTC	-0.0437
AGTGGGGA	-0.285
CCGAATAG	0.253
CATCAGTC	-0.142
ACCTAGGC	-0.219
ACGCAGTG	-0.188
ACCCCAAC	-0.131
ACGTGGAT	-0.229
ATGCGAGC	-0.0578
ACTCTGCT	-0.0803
CCACACTC	-0.0922
ACACTTTC	-0.021
GCACGTAC	-0.233

Sequence	PBM E-score
ATACAAAA	0.221
CTCTAAGC	0.0215
GCTGTGTA	-0.0706
ACAAAGAC	0.155
CATAGGGA	-0.19
CCCCCTCA	-0.44
ACAATATA	0.286
CTATGCAA	-0.157
CTCCAGTA	-0.0781
CGCTCCTC	-0.221
TAACCAGA	0.0462
ACTGCCAT	0.0176
ACGGTACC	0.118
ATGTACAA	0.126
ACATTATC	0.175
CTAGGCAG	-0.0512
AATTCCTA	0.00772
CCACAACA	-0.182
GAGTCACA	-0.0909
ACATGGAA	0.00985
ACACCGGT	0.126
CGACCAGC	-0.0372

— the supplement of paper PMC3334620
